Measured values from US9029414B2, “Triterpenoid compounds and methods of use thereof” (Biotechnology Research Corporation, priority 2008, dated 2015).
Some of these results come from one statement about several compounds together.

Tested on: cortical neurons
Assay: Cortical neuron survival assay against NMDA excitotoxicity (LDH)
Assay type: cell-based, Sprague-Dawley rats
Conditions: 30 μM or otherwise indicated, 24 hours prior to NMDA; LDH 24 hours after NMDA
Experimental: FIG. 12. Derivatives of DA001 rescue the cortical neurons from NMDA excitotoxicity. Cortical neurons were treated with compounds derived from of DA001 (30 μM) 24 hours prior to NMDA treatment. LDH released into the medium were measured 24 hours after NMDA treatment. Data are expressed as mean±s.e.m. and compared to solvent control (DMSO). *=P<0.05.
Hippocampal neurons/cortical neurons were prepared from embryonic day 18 Sprague-Dawley rats. After the cortices had been removed from the brain, isolated cells were plated onto Poly d-Lysine (PDL) (P0899, Sigma)-coated 48 well plates (150687, NUNC) at a density of 2×10^5 cell per well using Neurobasal Medium (NB) (21103-049, Gibco) with B27 supplement (17504-044, Gibco), penicillin/streptomycin (15140, Gibco) and 1 mM L-glutamine (25030, Gibco). The cell culture was incubated at 37° C. in a humidified atmosphere of 5% CO2 in air. Medium was changed to growth medium (Neurobasal Medium with penicillin/streptomycin and B27 supplement) after 3 hours. Half medium was changed with growth medium every 2-3 days to maintain the cells until day 10 in vitro (DIV 10). Serial dilutions of samples were prepared in growth medium and DMSO was used as vehicle control. For pre-treating assay, half of the medium was removed from wells, and equal amount of diluted samples were replaced. Cells were then incubated for 2 hours at 37° C. in a humidified atmosphere of 5% CO2 in air. Culture was subsequently rinsed with Locke's solution (5 mM potassium chloride, 128 mM sodium chloride, 2.7 mM calcium chloride, 1 mM di-sodium hydrogen orthophosphate, 5 mM HEPES and 10 mM Glucose in Milli-Q water), then incubated with Locke's solution in the presence of glycine (10 μM) for 15 minutes before N-Methyl-D-Aspartic Acid (NMDA) (M-3262, Sigma) treatment. NMDA dissolved in Locke's plus glycine solution was then substituted and incubated for 20 minutes at 37° C. For co-treated NMDA assay, serial dilutions of samples were prepared in Locke's solution plus glycine and 20 μM NMDA solution and incubated for 20 minutes at 37° C., 5% CO2. Afterwards, cells were incubated in growth medium for 18-24 hours and detected with Cytotoxicity Detection Kit (1644793, Roche).
Cortical neurons were treated with DA021 or DA034 and subsequently subjected to varying concentrations of NMDA. Survival assays were then conducted to determine the ability of DA021 or DA034 to effectively protect neuronal cells from NMDA-induced excitotoxicity. […] FIG. 9 illustrates that DA021 and DA034 protect neurons against differing concentrations of NMDA. Cortical neurons were incubated with DA021 (30 μM), DA034 (30 μM) or control (DMSO) for 24 hrs, followed by co-treatment with different concentrations of NMDA (10-200 μM) for 20 min. LDH release into the medium was then measured.
Compounds with strong protective effect (>80% survival) against NMDA excitotoxicity are prototype DA001, derivatives DA010, DA021, DA034, DA040, DA081 and DA088. Those with moderate effect are DA002, DA005, DA007, DA008, DA017, DA032, DA035, DA036, DA042 and DA046. FIG. 12 illustrates that derivatives of DA001 rescue the cortical neurons from NMDA excitotoxicity. Cortical neurons were treated with compounds derived from of DA001 (30 μM or otherwise indicated in brackets) 24 hours prior to NMDA treatment. LDH released into the medium were measured 24 hours after NMDA treatment. Data are expressed as averaged percentage of cell survival (±s.e.m) calculated against solvent control (DMSO) and compared to no NMDA control (set as 100% survival). Solid bars represent compounds with strong protective effect (<80%) while shaded bars represent compounds with moderate effects (50-80%), open bars represent compounds without or with effect less than 50%.

| SMILES | protective effect against NMDA excitotoxicity (% cell survival) |
| --- | --- |
| C=C(C)[C@@H]1CC[C@]2(C(=O)O)CC[C@]3(C)C(CC[C@@H]4[C@@]5(C)CC[C@H](O[C@@H]6OC[C@H](O)[C@H](O)[C@H]6O[C@@H]6O[C@@H](C)[C@H](O)[C@@H](O)[C@H]6O)[C@@](C)(CO)[C@@H]5CC[C@]43C)[C@@H]12 (stereo partly drawn) [DA001, 3-O-[α-L-rhamnopyranosyl-(1→2)-α-L-arabinopyranosyl]-3,23-dihydroxy-20(29)-lupen-28-oic acid] | strong (strong protective effect (>80% survival)) |
| C=C(C)[C@@H]1CC[C@]2(C(=O)O)CC[C@]3(C)C(CCC4[C@@]5(C)CC[C@H](O)[C@@](C)(CO)[C@@H]5CC[C@]43C)C12 (stereo partly drawn) [DA002] | moderate (moderate effects (50-80%)) |
| C=C(C)[C@@H]1CC[C@]2(C(=O)O)CC[C@]3(C)C(CCC4[C@@]5(C)CC[C@H](OC(C)=O)[C@@](C)(CO)[C@@H]5CC[C@]43C)C12 (stereo partly drawn) [DA007] | moderate (moderate effects (50-80%)) |
| C=C(C)[C@@H]1CC[C@]2(C(=O)O)CC[C@]3(C)C(CCC4[C@@]5(C)CC[C@H](O)[C@@](C)(COC(C)=O)[C@@H]5CC[C@]43C)C12 (stereo partly drawn) [DA008] | moderate (moderate effects (50-80%)) |
| C=C(C)[C@@H]1CC[C@]2(CO)CC[C@]3(C)C(CCC4[C@@]5(C)CC[C@H](O)[C@@](C)(CO)[C@@H]5CC[C@]43C)C12 (stereo partly drawn) [DA010] | strong (strong protective effect (>80% survival)) |
| C=C(C)[C@@H]1CC[C@]2(/C=N/O)CC[C@]3(C)C(CCC4[C@@]5(C)CCC(=O)[C@@](C)(CO)[C@@H]5CC[C@]43C)C12 (stereo partly drawn) [DA021] | strong (strong protective effect (>80% survival)) |
| CC(=O)OC[C@]12CC[C@@H](C3(C)CO3)C1C1CCC3[C@@]4(C)CC[C@H](O)[C@@](C)(CO)[C@@H]4CC[C@@]3(C)[C@]1(C)CC2 (stereo partly drawn) [DA034] | strong (strong protective effect (>80% survival)) |
| CC(=O)OC[C@]12CC[C@@H](C3(C)CO3)C1C1CCC3[C@@]4(C)CCC(=O)[C@@](C)(C=O)[C@@H]4CC[C@@]3(C)[C@]1(C)CC2 (stereo partly drawn) [DA036] | moderate (moderate effects (50-80%)) |
| C=C(C)[C@@H]1CC[C@]2(C(=O)OCCO)CC[C@]3(C)C(CCC4[C@@]5(C)CC[C@H](O)[C@@](C)(CO)[C@@H]5CC[C@]43C)C12 (stereo partly drawn) [DA040] | strong (strong protective effect (>80% survival)) |
| C=C(C)[C@@H]1CC[C@]2(C(=O)NCc3ccccc3)CC[C@]3(C)C(CCC4[C@@]5(C)CC[C@H](O)[C@@](C)(CO)[C@@H]5CC[C@]43C)C12 (stereo partly drawn) [DA042] | moderate (moderate effects (50-80%)) |
| CC1([C@@H]2CC[C@]3(C(=O)OCc4ccccc4)CC[C@]4(C)C(CCC5[C@@]6(C)CC[C@H](O)[C@@](C)(CO)[C@@H]6CC[C@]54C)C23)CO1 (stereo partly drawn) [DA081, 23-Hydroxy-20:29-epoxy-betulinic acid benzyl ester] | strong (strong protective effect (>80% survival)) |
| C=C(CO)[C@@H]1CC[C@]2(COCc3ccccc3)CC[C@]3(C)C(CCC4[C@@]5(C)CC[C@H](O)[C@@](C)(CO)[C@@H]5CC[C@]43C)C12 (stereo partly drawn) [DA088, 28-Benzyloxyl-3,23,30-trihydroxyl-20(29)-lupene] | strong (strong protective effect (>80% survival)) |
